Like-named read-outs stand apart in the source and are kept apart here. These are yes or no findings as the source states them, for the method shown. Binding seen in cells or lysates may run through a third protein. Here binding means that the protein was enriched with, or labelled near, the bait; the list need not be complete. Sequences can lack the tags named with a protein.
T1: Flag-eEF2K (eukaryotic elongation factor 2 kinase) (UniProt O00418)
T1 sequence: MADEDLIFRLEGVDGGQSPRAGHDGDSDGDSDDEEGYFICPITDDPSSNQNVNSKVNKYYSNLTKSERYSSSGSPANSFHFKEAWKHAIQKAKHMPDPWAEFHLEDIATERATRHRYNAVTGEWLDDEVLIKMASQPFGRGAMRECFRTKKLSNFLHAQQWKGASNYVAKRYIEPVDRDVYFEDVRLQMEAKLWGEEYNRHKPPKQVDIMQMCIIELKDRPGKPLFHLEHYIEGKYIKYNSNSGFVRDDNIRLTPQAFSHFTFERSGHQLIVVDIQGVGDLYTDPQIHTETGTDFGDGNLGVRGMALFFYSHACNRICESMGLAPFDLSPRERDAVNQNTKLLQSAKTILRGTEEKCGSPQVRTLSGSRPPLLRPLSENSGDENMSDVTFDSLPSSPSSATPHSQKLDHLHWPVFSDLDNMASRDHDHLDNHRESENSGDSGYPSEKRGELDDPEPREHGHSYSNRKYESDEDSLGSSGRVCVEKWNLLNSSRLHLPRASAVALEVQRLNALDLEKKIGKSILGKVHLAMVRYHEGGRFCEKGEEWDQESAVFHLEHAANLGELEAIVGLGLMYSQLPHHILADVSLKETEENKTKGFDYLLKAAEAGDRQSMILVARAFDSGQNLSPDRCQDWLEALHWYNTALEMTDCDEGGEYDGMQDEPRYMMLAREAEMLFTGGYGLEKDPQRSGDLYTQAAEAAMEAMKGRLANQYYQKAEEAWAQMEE

Sequences of proteins named here, by UniProt entry; tags and fusion partners are left off.
UniProt P49841: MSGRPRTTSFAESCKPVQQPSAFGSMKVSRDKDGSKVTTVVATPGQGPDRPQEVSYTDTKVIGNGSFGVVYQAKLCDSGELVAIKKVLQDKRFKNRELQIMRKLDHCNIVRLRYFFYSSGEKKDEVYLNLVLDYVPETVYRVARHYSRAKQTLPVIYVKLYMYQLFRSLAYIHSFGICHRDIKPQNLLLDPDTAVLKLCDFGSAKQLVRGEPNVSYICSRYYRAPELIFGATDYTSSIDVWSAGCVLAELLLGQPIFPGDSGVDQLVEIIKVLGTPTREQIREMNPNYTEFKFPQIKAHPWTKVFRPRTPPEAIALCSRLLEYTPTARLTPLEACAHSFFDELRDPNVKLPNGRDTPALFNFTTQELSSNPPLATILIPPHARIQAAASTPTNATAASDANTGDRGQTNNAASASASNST


What was measured:
[1] = molecular target: T1, Flag-eEF2K (eukaryotic elongation factor 2 kinase); experiment: affinity purification with mass spectrometry; proteins immunoprecipitated by anti-Flag antibody, separated by PAGE, silver stained and analysed by mass spectrometry; cells not given
[2] = molecular target: T1, Flag-eEF2K (eukaryotic elongation factor 2 kinase); experiment: as above; remark: listed apart in the source

Molecule	binding [1]	binding [2]
GSK3β found in the IP-MS of eEF2K (from UniProt P49841 1-420) (enzyme)	binds	
Homer1 (protein, UniProt Q86YM7 1-354) MGEQPIFSTRAHVFQIDPNTKKNWVPTSKHAVTVSYFYDSTRNVYRIISLDGSKAIINSTITPNMTFTKTSQKFGQWADSRANTVYGLGFSSEHHLSKFAEKFQEFKEAARLAKEKSQEKMELTSTPSQESAGGDLQSPLTPESINGTDDERTPDVTQNSEPRAEPTQNALPFSHSSAISKHWEAELATLKGNNAKLTAALLESTANVKQWKQQLAAYQEEAERLHKRVTELECVSSQANAVHTHKTELNQTIQELEETLKLKEEEIERLKQEIDNARELQEQRDSLTQKLQEVEIRNKDLEGQLSDLEQRLEKSQNEQEAFRNNLKTLLEILDGKIFELTELRDNLAKLLECS		binds

From article PMC8961175
